Test results reported in PMC3991886.
The exact form of at least one protein or probe is not confirmed. At least one verdict was read from the data and is not stated in words by the source. For some assays here: Where a protein sequence is shown, tags need not be part of it.

By UniProt entry, the sequences of proteins in these tests, tags left out. Where a name states a change or a piece, a line headed by the entry shows the natural chain unless it says otherwise.
UniProt P0AGE0: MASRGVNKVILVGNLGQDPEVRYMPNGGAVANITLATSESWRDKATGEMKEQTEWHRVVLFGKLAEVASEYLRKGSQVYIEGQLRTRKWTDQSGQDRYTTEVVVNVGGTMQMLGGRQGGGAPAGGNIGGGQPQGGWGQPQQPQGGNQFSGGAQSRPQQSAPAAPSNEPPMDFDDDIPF

Columns and labels:
Experiment in all cases: EMSA
[1] = biological target: T1, PtoSSB (Psychroflexus torquis ATCC 700755 (LMG 21429)) (UniProt K4IS14); conditions: EMSA: 20 mM Tris-HCl pH 8.0, 100 mM NaCl, 1 mM EDTA, 25 C, 2% agarose in TAE, recombinant protein, residues 1-151, label: 5'-fluorescein, single-stranded DNA
T1 sequence (looked up): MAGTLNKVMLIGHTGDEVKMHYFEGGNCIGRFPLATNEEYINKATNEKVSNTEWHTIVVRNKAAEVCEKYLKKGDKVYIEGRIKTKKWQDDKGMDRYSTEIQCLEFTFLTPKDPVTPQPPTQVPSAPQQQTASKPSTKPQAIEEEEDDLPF

[2] = biological target: T2, PprSSB (Photobacterium profundum (LMG 19446)) (UniProt Q6LM83); conditions: EMSA: 20 mM Tris-HCl pH 8.0, 100 mM NaCl, 1 mM EDTA, 25 C, 2% agarose in TAE, recombinant protein, label: 5'-fluorescein, single-stranded DNA
T2 sequence (looked up, limits assumed): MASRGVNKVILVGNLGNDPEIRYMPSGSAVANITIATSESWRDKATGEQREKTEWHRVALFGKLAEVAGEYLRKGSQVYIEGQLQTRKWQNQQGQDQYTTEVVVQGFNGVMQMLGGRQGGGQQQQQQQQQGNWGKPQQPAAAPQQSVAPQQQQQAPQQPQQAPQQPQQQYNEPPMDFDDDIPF

[3] = biological target: EcoSSB (Escherichia coli) (UniProt P0AGE0); conditions: after heat treatment, 50% activity left after 15 min at 100 C; EMSA: 20 mM Tris-HCl pH 8.0, 100 mM NaCl, 1 mM EDTA, 25 C, 2% agarose in TAE; recombinant …; label: 5'-fluorescein; single-stranded DNA

TTTTTTTTTTTTTTTTTTTTTTTTTTTTTTTTTTTTTTTTTTTTTTTTTTTTTTTTTTTTTTTTTTTTTTTTTTTTTTTTTTTTTTTTTTTTTTTTTTTTTTTTTTTTTTTTTTTTTTTT [(dT)120]
binding result ([1]; complexes I-III): binds
binding result ([2]; complexes I-III): binds

TTTTTTTTTTTTTTTTTTTTTTTTTTTTTTTTTTTTTTTTTTTTTTTTTTTTTTTTTTTTTTTTTTTTTTTTTTTT [(dT)76 fluorescein]
binding result ([1]; complexes I and II): binds
binding result ([2]; complexes I and II): binds

TTTTTTTTTTTTTTTTTTTTTTTTTTTTTTTTTTT [(dT)35]
binding result [3]: binds
